This assay deals with CD2F1 mice, L1210 leukemia ip, survival T/C. As to the kind of experiment: NCI In Vivo Anticancer Drug Screen. Data for tumor model L1210 Leukemia (intraperitoneal) in CD2F1 (CDF1) mice. The following applies: higher T/C = longer survival. An outline of the steps:
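Activity against a transplanted murine tumor was judged by comparing the compound group with a vehicle group. The outcome in the treated animals was divided by that in the controls.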

The mark [1] stands for this setting: T/C endpoint: mean survival time, dose: 200.0 mg/kg/injection, schedule: Q01DX009 (ip), vehicle: saline with Tween-80.
The mark [2] stands for this setting: T/C endpoint: mean survival time, dose: 200.0 mg/kg/injection, schedule: Q04DX003 (ip), vehicle: saline with Tween-80.
Setting [3] is: T/C endpoint: mean survival time, dose: 400.0 mg/kg/injection, schedule: Q04DX003 (ip), vehicle: saline with Tween-80.
Where [4] appears, read: T/C endpoint: mean survival time, dose: 100.0 mg/kg/injection, schedule: Q04DX003 (ip), vehicle: saline with Tween-80.
[5] abbreviates: T/C endpoint: mean survival time, dose: 400.0 mg/kg/injection, schedule: Q01DX009 (ip), vehicle: saline.
Setting [6] is: T/C endpoint: mean survival time, dose: 300.0 mg/kg/injection, schedule: Q01DX001 (ip), vehicle: other.
Setting [7] is: T/C endpoint: mean survival time, dose: 400.0 mg/kg/injection, schedule: Q01DX009 (ip), vehicle: other.

From PubChem BioAssay AID256 (DTP/NCI, 2004) come the findings set out here.

The list shows only some results of the screen, not a fair sample: it gathers tests that were run many times, whatever their T/C, doses with no T/C, and many T/C values between a quarter and a half above the control. Other doses and runs of a compound stand elsewhere. T/C gives the treated animals as a percentage of the vehicle group. Some doses have a count of surviving animals in place of a T/C: the source holds a T/C of zero for them, seemingly a mark for toxic or unscored doses. Some survivor counts are full or nearly so, which does not show that the dose was tolerated: the source hardly ever lists a survival T/C far under the control, and the zero likely stands for such cases as well. Survivors were counted at the toxicity check, usually on the fifth day, unless a day is given; later deaths do not show. Schedule codes are those of the source, read here as Q, the interval in days (D) or hours (H), X, the number of doses. Some entries hold several experiments; the values are given in rising order. For survival time, the PubChem record calls one and a half times the control and up active, and a quarter to a half above the control has no call in these data; cut-offs in other NCI protocols can differ. Some T/C values are followed by the survivors on the day toxicity was checked, most often the fifth; where none is given, no animal had died by that day.

With `NC(CC(=O)CCl)C(=O)O` (centres undefined), the T/C is, setting by setting: (T/C endpoint: mean survival time, dose: 12.5 mg/kg/injection, schedule: Q04DX003 (ip), vehicle: saline, evaluated on day 5) 133 % of control; (T/C endpoint: mean survival time, dose: 12.5 mg/kg/injection, schedule: Q04DX003 (ip), vehicle: saline, evaluated on day 30) 133 % of control; (T/C endpoint: mean survival time, dose: 18.8 mg/kg/injection, schedule: Q04DX003 (ip), vehicle: saline) 126 % of control; (T/C endpoint: mean survival time, dose: 25.0 mg/kg/injection, schedule: Q04DX003 (ip), vehicle: saline, evaluated on day 5) 140 % of control; (T/C endpoint: mean survival time, dose: 25.0 mg/kg/injection, schedule: Q04DX003 (ip), vehicle: saline, evaluated on day 30) 140 % of control; (T/C endpoint: mean survival time, dose: 50.0 mg/kg/injection, schedule: Q04DX003 (ip), vehicle: saline, evaluated on day 5) 134 % of control. Besides, the T/C is 134 % of control (T/C endpoint: mean survival time, dose: 50.0 mg/kg/injection, schedule: Q04DX003 (ip), vehicle: saline, evaluated on day 30); 129 % of control [4 of 6 alive] (T/C endpoint: mean survival time, dose: 75.0 mg/kg/injection, schedule: Q04DX003 (ip), vehicle: saline); 137 % of control (T/C endpoint: median survival time, dose: 7.5 mg/kg/injection, schedule: Q01DX009 (ip), vehicle: saline, evaluated on day 5); 133 % of control (T/C endpoint: median survival time, dose: 7.5 mg/kg/injection, schedule: Q01DX009 (ip), vehicle: saline, evaluated on day 30); 140 % of control (T/C endpoint: median survival time, dose: 15.0 mg/kg/injection, schedule: Q01DX009 (ip), vehicle: saline, evaluated on day 5); 133 % of control (T/C endpoint: median survival time, dose: 15.0 mg/kg/injection, schedule: Q01DX009 (ip), vehicle: saline, evaluated on day 30). For the same compound, the T/C (T/C endpoint: median survival time, dose: 30.0 mg/kg/injection, schedule: Q01DX009 (ip), vehicle: saline) is 147 % of control. Further, the survivor count is, setting by setting: (T/C endpoint: mean survival time, dose: 150.0 mg/kg/injection, schedule: Q04DX003 (ip), vehicle: saline) 0 of 6; (T/C endpoint: median survival time, dose: 60.0 mg/kg/injection, schedule: Q01DX009 (ip), vehicle: saline) 0 of 10.

With `c1ccc(Nc2ccccc2)cc1` (tested in a mixture with another compound), the survivor count was 0 of 3 (T/C endpoint: mean survival time, dose: 200.0 mg/kg/injection, schedule: Q04DX002 (ip), vehicle: saline) and 0 of 3 (T/C endpoint: mean survival time, dose: 400.0 mg/kg/injection, schedule: Q04DX002 (ip), vehicle: saline).

As for `c1ccc(-c2nnc(-c3ccccn3)o2)nc1`, the T/C (T/C endpoint: mean survival time, dose: 200.0 mg/kg/injection, schedule: Q04DX002 (ip), vehicle: saline with Tween-80) is 144 % of control.

On to `Cc1ccccc1N=C=S`, for which the survivor count runs as follows: (T/C endpoint: mean survival time, dose: 100.0 mg/kg/injection, schedule: Q01DX009 (ip), vehicle: saline with Tween-80) 1 of 6; under setting [1], 0 of 6; (T/C endpoint: mean survival time, dose: 400.0 mg/kg/injection, schedule: Q01DX009 (ip), vehicle: saline with Tween-80) 0 of 6.

Consider `CC1=C2C(=CC(C)(CO)C2O)C(O)C(C)(O)C12CC2` (centres undefined), for which the survivor count (T/C endpoint: mean survival time, dose: 25.0 mg/kg/injection, schedule: Q01DX005 (ip), vehicle: water) is recorded as 3 of 3; the survivor count (T/C endpoint: mean survival time, dose: 50.0 mg/kg/injection, schedule: Q01DX005 (ip), vehicle: water) is listed as 1 of 3; the survivor count (T/C endpoint: mean survival time, dose: 100.0 mg/kg/injection, schedule: Q01DX005 (ip), vehicle: water) is given as 0 of 3; the survivor count (T/C endpoint: mean survival time, dose: 200.0 mg/kg/injection, schedule: Q01DX005 (ip), vehicle: water) is given as 0 of 3; the survivor count (T/C endpoint: mean survival time, dose: 400.0 mg/kg/injection, schedule: Q01DX005 (ip), vehicle: water) is 0 of 3.

As for `Cc1oc2ccc(NS(=O)(=O)c3ccccc3)cc2c1C(=O)O`, the survivor count reads like this: under setting [2], 3 of 6; under setting [3], 0 of 6.

Regarding `C1CCC2C[N-]CCC2C1.C1CCC2C[N-]CCC2C1.C1CCC2C[N-]CCC2C1.C1CCC2C[N-]CCC2C1.[Cl][Rh][Cl]` (centres undefined), the survivor count is given as 3 of 6 (T/C endpoint: mean survival time, dose: 4.0 mg/kg/injection, schedule: Q01DX009 (ip), vehicle: saline with Tween-80) and 3 of 6 (T/C endpoint: mean survival time, dose: 8.0 mg/kg/injection, schedule: Q01DX009 (ip), vehicle: saline with Tween-80).

Turning to `CC(C)(C)N[P+](Cc1ccccc1)(NC(C)(C)C)c1ccccc1`, the survivor count is listed as 2 of 6 (T/C endpoint: mean survival time, dose: 50.0 mg/kg/injection, schedule: Q04DX003 (ip), vehicle: saline with Tween-80); 0 of 6 under setting [4]; 0 of 6 under setting [2]; 0 of 6 under setting [3].

As for `Cc1ccc(NCC(O)C(O)C(O)CO)cc1C` (centres undefined), the survivor count (T/C endpoint: mean survival time, dose: 400.0 mg/kg/injection, schedule: Q04DX002 (ip), vehicle: saline with Tween-80) is recorded as 3 of 3.

As for `O=S(=O)(O)c1ccccc1O`, the survivor count was 0 of 6 (T/C endpoint: mean survival time, dose: 200.0 mg/kg/injection, schedule: Q01DX009 (ip), vehicle: saline) and 0 of 6 under setting [5].

With `CCN1/C(=C\c2ccc3cc(C)ccc3[n+]2CC)[Se]c2ccccc21`, the survivor count is 0 of 6 (T/C endpoint: mean survival time, dose: 75.0 mg/kg/injection, schedule: Q01DX001 (ip), vehicle: other); 0 of 6 (T/C endpoint: mean survival time, dose: 150.0 mg/kg/injection, schedule: Q01DX001 (ip), vehicle: other); 0 of 6 under setting [6].

In the case of `CC(=O)OCc1cc(=O)n(C)c2c3c4c(cc12)c(C)cc(=O)n4CO3`, under “T/C endpoint: mean survival time, dose: 50.0 mg/kg/injection, schedule: Q01DX009 (ip), vehicle: Klucel (hydroxypropylcellulose) (HPC)”, the T/C was 133 and 134 % of control. The survivor count (T/C endpoint: mean survival time, dose: 100.0 mg/kg/injection, schedule: Q01DX009 (ip), vehicle: Klucel (hydroxypropylcellulose) (HPC)) was 1 of 6 and 4 of 6; the survivor count (T/C endpoint: mean survival time, dose: 200.0 mg/kg/injection, schedule: Q01DX009 (ip), vehicle: Klucel (hydroxypropylcellulose) (HPC)) is 0 of 6 and 2 of 6.

Consider `NC1=NC(=O)N2CC12` (centres undefined), for which the T/C by setting is: (T/C endpoint: mean survival time, dose: 100.0 mg/kg/injection, schedule: Q01DX009 (ip), vehicle: other) 130 % of control; (T/C endpoint: mean survival time, dose: 100.0 mg/kg/injection, schedule: Q01DX009 (ip), vehicle: saline) 128 and 135 % of control; (T/C endpoint: mean survival time, dose: 200.0 mg/kg/injection, schedule: Q01DX009 (ip), vehicle: other) 146 % of control. Also, the survivor count reads like this: under setting [7], 4 of 10; under setting [5], 0 of 6.

Take `CCN(CCN(C)C(C)(C)C(C)(C)C)C(=O)C(O)(c1ccccc1)c1ccccc1`: under setting [1], the survivor count is 0 of 3.

Turning to `Clc1cc(Cl)c(CBr)cc1CBr`, the survivor count runs as follows: (T/C endpoint: mean survival time, dose: 25.0 mg/kg/injection, schedule: Q01DX009 (ip), vehicle: saline with Tween-80) 3 of 6; (T/C endpoint: mean survival time, dose: 50.0 mg/kg/injection, schedule: Q01DX009 (ip), vehicle: saline with Tween-80) 0 of 6; under setting [4], 5 of 6; under setting [3], 2 of 6.

As for `CCN1CCS(=O)(=O)C1=O`, the survivor count under setting [6] is on record as 0 of 6.

Regarding `COc1ccc(OC)c(NC(=O)N2CCCC(C)C2)c1` (centres undefined), the survivor count under setting [7] is 6 of 6.

Regarding `CCCCCCCCCCCCCCCC(O)S(=O)(=O)O` (centres undefined), the survivor count under setting [1] is recorded as 1 of 6.

In the case of `Nc1cc2[nH]cnc2c([Se])n1`, the survivor count under setting [3] was 1 of 6.

Consider `CN(C)S(=O)(=O)c1ccccc1C1(O)c2ccccc2-c2ccccc21`, for which the survivor count is, setting by setting: under setting [1], 6 of 6; under setting [3], 6 of 6.

Turning to `CCOC(=O)C12CCCCC1C/C(=N/NC(N)=O)CC2` (centres undefined), the survivor count was 6 of 6 (T/C endpoint: mean survival time, dose: 100.0 mg/kg/injection, schedule: Q01DX001 (ip), vehicle: saline with Tween-80); 2 of 6 under setting [2]; 0 of 6 (T/C endpoint: mean survival time, dose: 400.0 mg/kg/injection, schedule: Q01DX001 (ip), vehicle: saline with Tween-80).

On to `NC1CCCCC1CC1CCCCC1` (centres undefined), for which the survivor count by setting is: under setting [4], 4 of 6; under setting [2], 1 of 6; under setting [3], 0 of 6.

As for `C=CCCCCCCCCC(=O)NCC[N+](C)(C)C`, the survivor count (T/C endpoint: mean survival time, dose: 100.0 mg/kg/injection, schedule: Q04DX003 (ip), vehicle: saline) was 1 of 6; the survivor count (T/C endpoint: mean survival time, dose: 200.0 mg/kg/injection, schedule: Q04DX003 (ip), vehicle: saline) is listed as 0 of 6; the survivor count (T/C endpoint: mean survival time, dose: 400.0 mg/kg/injection, schedule: Q04DX003 (ip), vehicle: saline) is listed as 0 of 6.

Take `O=C(/C(=N\O)c1ccc(Cl)cc1)c1ccc(Cl)cc1`: the survivor count under setting [3] is reported as 0 of 6.
